According to paper PMC6932917:
Results are given in words; binding and its absence hold for the method and conditions named. In cells and extracts the contact can be indirect. These calls come from enrichment with a bait or labelling near it, and not all partners need be listed. Tags and fused reporters may be left off the sequences shown.

Sequences of proteins named here, by UniProt entry; tags and fusion partners are left off. Residues count along the entry.
UniProt P60842: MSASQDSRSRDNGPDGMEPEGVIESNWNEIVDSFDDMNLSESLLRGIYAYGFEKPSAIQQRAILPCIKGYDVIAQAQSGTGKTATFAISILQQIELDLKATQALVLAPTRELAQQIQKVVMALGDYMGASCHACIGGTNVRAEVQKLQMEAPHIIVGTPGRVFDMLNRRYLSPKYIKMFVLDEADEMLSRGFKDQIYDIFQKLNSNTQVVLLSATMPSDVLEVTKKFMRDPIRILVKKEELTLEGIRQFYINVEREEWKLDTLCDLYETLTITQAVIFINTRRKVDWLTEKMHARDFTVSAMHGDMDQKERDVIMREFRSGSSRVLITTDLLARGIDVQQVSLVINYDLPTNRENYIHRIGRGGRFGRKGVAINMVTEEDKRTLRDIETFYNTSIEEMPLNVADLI
UniProt Q15717: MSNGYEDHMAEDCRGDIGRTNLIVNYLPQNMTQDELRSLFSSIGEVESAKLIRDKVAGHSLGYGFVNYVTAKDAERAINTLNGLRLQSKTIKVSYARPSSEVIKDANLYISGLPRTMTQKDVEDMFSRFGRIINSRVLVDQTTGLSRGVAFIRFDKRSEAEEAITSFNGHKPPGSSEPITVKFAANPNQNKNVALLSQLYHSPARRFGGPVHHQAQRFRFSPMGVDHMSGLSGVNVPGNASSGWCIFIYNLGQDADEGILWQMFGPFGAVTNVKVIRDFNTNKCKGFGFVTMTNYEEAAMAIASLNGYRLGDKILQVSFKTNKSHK
UniProt P35637: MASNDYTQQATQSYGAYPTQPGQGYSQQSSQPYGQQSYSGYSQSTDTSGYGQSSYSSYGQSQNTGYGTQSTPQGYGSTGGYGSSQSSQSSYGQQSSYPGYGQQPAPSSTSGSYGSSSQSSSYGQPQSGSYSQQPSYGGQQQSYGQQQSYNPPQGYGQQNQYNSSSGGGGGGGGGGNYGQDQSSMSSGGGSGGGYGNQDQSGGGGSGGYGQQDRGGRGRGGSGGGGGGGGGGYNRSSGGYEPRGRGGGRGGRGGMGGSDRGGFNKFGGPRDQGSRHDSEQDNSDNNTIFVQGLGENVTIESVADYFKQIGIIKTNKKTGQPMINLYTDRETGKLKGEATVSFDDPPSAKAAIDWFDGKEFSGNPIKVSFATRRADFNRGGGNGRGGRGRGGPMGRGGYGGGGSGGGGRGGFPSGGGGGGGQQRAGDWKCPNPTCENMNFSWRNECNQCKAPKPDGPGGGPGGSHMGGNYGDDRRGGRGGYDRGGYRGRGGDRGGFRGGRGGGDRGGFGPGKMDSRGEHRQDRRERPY
UniProt Q13283: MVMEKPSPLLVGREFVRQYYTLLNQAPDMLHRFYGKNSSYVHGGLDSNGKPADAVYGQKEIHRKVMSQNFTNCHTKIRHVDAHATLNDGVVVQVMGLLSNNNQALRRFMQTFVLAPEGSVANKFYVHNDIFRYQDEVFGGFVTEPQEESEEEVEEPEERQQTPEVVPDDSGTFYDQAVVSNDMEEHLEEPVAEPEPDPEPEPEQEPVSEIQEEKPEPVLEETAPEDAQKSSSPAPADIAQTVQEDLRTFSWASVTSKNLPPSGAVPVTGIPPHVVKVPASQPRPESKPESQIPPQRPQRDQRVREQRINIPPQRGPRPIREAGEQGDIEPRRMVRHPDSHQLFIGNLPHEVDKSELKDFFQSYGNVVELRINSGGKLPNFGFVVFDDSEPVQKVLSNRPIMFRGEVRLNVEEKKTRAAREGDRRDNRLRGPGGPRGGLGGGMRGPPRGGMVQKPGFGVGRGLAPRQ
UniProt P18065, residues 36-325: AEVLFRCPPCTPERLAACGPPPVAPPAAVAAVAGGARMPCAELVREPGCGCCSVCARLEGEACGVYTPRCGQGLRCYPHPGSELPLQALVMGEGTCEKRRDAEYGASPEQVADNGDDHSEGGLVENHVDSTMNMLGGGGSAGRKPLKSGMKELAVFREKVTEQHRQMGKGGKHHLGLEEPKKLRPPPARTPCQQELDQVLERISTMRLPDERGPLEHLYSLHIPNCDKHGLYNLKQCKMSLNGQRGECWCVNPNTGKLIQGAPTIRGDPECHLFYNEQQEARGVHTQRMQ
UniProt P27816: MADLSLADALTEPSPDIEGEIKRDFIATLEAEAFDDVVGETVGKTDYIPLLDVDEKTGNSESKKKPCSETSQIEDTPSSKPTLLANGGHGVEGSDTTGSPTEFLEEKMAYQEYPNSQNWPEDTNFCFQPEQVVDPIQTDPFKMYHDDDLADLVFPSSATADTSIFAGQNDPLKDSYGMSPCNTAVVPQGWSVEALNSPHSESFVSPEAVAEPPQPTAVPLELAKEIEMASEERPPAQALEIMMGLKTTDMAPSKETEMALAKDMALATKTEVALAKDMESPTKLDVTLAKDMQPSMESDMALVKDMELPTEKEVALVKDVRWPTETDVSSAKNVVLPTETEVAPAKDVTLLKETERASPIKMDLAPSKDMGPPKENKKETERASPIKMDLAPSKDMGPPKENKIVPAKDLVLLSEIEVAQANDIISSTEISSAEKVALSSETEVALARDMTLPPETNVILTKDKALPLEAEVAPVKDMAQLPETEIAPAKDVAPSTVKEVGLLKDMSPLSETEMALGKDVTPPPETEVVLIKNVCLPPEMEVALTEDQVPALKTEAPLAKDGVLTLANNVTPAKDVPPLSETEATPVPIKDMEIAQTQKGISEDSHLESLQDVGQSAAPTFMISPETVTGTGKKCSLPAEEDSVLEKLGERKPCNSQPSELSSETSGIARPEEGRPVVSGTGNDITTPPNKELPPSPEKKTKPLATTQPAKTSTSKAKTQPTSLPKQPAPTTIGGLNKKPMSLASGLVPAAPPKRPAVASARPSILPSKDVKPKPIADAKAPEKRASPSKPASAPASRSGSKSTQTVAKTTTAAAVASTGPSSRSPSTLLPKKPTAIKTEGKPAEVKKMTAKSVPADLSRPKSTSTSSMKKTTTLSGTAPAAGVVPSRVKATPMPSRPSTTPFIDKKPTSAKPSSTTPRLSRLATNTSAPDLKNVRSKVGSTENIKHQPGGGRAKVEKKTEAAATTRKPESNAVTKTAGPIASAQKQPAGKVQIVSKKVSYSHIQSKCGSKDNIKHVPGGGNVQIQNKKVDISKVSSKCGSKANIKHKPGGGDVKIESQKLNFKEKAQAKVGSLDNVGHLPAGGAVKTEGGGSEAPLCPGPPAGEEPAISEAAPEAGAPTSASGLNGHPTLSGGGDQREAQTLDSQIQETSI
UniProt P31153: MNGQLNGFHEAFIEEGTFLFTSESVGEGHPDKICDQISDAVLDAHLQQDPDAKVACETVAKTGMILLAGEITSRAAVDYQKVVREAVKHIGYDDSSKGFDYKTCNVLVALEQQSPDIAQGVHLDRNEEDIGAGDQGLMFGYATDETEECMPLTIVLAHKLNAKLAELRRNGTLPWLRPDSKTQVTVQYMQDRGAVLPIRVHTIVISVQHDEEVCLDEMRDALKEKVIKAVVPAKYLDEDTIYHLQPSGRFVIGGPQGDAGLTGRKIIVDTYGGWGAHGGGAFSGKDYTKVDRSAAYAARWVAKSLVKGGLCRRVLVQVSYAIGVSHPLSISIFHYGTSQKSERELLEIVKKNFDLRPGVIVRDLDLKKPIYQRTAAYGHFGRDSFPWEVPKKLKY
UniProt P09874: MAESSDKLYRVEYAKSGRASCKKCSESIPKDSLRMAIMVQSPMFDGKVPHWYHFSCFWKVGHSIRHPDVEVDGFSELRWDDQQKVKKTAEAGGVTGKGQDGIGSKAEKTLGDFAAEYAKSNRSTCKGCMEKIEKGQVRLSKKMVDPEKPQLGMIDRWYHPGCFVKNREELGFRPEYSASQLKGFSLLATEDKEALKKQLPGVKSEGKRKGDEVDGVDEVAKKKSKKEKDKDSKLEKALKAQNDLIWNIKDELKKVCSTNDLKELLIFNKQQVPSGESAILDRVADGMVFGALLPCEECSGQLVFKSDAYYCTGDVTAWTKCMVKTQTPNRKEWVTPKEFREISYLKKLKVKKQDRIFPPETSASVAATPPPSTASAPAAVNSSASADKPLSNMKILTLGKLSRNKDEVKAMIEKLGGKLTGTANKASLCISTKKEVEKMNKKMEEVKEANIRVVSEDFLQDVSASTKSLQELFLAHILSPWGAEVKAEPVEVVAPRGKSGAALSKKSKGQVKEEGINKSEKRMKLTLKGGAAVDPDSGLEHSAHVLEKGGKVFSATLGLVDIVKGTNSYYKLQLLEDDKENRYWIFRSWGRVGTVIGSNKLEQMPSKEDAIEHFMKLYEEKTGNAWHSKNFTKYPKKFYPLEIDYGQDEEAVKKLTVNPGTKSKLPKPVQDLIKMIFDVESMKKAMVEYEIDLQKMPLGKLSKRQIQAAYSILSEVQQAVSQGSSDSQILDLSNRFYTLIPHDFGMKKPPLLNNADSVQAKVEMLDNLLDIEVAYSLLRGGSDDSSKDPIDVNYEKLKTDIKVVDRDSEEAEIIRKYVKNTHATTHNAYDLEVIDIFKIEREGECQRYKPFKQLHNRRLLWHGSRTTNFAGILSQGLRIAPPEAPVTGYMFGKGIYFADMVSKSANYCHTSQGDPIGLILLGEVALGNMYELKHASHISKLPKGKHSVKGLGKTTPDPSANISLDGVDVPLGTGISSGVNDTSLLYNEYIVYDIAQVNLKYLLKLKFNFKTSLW
UniProt P38159: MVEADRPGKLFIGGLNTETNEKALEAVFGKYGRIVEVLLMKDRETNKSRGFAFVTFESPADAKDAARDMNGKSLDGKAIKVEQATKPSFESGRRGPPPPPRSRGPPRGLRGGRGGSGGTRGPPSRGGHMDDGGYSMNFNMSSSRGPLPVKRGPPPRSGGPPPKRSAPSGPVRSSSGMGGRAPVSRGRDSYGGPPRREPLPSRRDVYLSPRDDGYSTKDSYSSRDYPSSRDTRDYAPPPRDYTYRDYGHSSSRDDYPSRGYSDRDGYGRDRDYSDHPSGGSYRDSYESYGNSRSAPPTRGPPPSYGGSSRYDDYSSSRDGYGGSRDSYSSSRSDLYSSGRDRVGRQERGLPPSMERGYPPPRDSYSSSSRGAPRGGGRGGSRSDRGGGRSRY
UniProt P00441: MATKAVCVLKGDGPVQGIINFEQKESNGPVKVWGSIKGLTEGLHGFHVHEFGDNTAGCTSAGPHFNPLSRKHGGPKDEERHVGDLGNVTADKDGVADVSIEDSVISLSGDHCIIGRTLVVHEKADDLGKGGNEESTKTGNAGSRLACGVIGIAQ
UniProt P67809: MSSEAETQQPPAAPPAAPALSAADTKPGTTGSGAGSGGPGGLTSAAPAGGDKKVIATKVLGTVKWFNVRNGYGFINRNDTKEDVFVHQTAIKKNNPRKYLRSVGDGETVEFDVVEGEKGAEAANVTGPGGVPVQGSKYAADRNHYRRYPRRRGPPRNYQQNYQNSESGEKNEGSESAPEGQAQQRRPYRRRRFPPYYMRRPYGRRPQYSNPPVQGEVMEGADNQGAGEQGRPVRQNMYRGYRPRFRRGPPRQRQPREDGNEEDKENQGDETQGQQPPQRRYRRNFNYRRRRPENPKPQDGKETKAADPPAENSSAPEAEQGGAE
UniProt P42771: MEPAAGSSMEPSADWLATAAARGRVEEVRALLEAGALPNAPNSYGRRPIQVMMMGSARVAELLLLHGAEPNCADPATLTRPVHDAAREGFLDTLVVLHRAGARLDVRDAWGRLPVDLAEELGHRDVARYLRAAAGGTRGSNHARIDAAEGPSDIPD
UniProt P12004: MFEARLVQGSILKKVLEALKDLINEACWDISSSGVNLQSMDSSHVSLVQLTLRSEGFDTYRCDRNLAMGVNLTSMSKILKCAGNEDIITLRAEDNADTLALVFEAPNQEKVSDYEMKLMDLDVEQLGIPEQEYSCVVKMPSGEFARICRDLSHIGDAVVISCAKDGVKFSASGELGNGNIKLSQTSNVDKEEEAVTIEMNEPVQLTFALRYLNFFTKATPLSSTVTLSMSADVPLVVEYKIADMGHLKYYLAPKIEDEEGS

T1: N-terminally 3xHA-tagged human RXFP3 (relaxin family peptide 3 receptor) (human) (UniProt Q9NSD7)
T1 sequence: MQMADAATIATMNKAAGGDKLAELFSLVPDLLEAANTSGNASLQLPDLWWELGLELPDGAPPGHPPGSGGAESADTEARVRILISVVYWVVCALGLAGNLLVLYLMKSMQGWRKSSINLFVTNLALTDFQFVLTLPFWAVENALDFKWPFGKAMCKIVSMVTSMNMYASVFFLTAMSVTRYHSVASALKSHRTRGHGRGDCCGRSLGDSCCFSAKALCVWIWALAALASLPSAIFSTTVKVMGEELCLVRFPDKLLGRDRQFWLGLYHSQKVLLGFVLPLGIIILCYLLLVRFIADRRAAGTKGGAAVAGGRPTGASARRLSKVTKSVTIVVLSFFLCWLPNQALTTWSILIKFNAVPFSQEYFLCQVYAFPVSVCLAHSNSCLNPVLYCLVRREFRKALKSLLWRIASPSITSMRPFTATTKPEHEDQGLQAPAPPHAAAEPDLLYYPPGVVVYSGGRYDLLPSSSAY

B1: PRDX6 (protein, UniProt P30041 1-224)
chain: MPGGLLLGDVAPNFEANTTVGRIRFHDFLGDSWGILFSHPRDFTPVCTTELGRAAKLAPEFAKRNVKLIALSIDSVEDHLAWSKDINAYNCEEPTEKLPFPIIDDRNRELAILLGMLDPAEKDEKGMPVTARVVFVFGPDKKLKLSILYPATTGRNFDEILRVVISLQLTAEKRVATPVDWKDGDSVMVLPTIPEEEAKKLFPKGVFTKELPSGKKYLRYTPQP
B2: NONO (protein, UniProt Q15233 1-471)
chain: MQSNKTFNLEKQNHTPRKHHQHHHQQQHHQQQQQQPPPPPIPANGQQASSQNEGLTIDLKNFRKPGEKTFTQRSRLFVGNLPPDITEEEMRKLFEKYGKAGEVFIHKDKGFGFIRLETRTLAEIAKVELDNMPLRGKQLRVRFACHSASLTVRNLPQYVSNELLEEAFSVFGQVERAVVIVDDRGRPSGKGIVEFSGKPAARKALDRCSEGSFLLTTFPRPVTVEPMDQLDDEEGLPEKLVIKNQQFHKEREQPPRFAQPGSFEYEYAMRWKALIEMEKQQQDQVDRNIKEAREKLEMEMEAARHEHQVMLMRQDLMRRQEELRRMEELHNQEVQKRKQLELRQEEERRRREEEMRRQQEEMMRRQQEGFKGTFPDAREQEIRMGQMAMGGAMGINNRGAMPPAPVPAGTPAPPGPATMMPDGTLGLTPPTTERFGQAATMEGIGAIGGTPPAFNRAAPGAEFAPNKRRRY
B3: AIMP1 (protein, UniProt Q12904 1-312)
chain: MANNDAVLKRLEQKGAEADQIIEYLKQQVSLLKEKAILQATLREEKKLRVENAKLKKEIEELKQELIQAEIQNGVKQIPFPSGTPLHANSMVSENVIQSTAVTTVSSGTKEQIKGGTGDEKKAKEKIEKKGEKKEKKQQSIAGSADSKPIDVSRLDLRIGCIITARKHPDADSLYVEEVDVGEIAPRTVVSGLVNHVPLEQMQNRMVILLCNLKPAKMRGVLSQAMVMCASSPEKIEILAPPNGSVPGDRITFDAFPGEPDKELNPKKKIWEQIQPDLHTNDECVATYKGVPFEVKGKGVCRAQTMSNSGIK
B4: PRDX1 (protein, UniProt Q06830 1-199)
chain: MSSGNAKIGHPAPNFKATAVMPDGQFKDISLSDYKGKYVVFFFYPLDFTFVCPTEIIAFSDRAEEFKKLNCQVIGASVDSHFCHLAWVNTPKKQGGLGPMNIPLVSDPKRTIAQDYGVLKADEGISFRGLFIIDDKGILRQITVNDLPVGRSVDETLRLVQAFQFTDKHGEVCPAGWKPGSDTIKPDVQKSKEYFSKQK
B5: TRAP1 (protein, UniProt Q12931 60-704)
chain: STQTAEDKEEPLHSIISSTESVQGSTSKHEFQAETKKLLDIVARSLYSEKEVFIRELISNASDALEKLRHKLVSDGQALPEMEIHLQTNAEKGTITIQDTGIGMTQEELVSNLGTIARSGSKAFLDALQNQAEASSKIIGQFGVGFYSAFMVADRVEVYSRSAAPGSLGYQWLSDGSGVFEIAEASGVRTGTKIIIHLKSDCKEFSSEARVRDVVTKYSNFVSFPLYLNGRRMNTLQAIWMMDPKDVREWQHEEFYRYVAQAHDKPRYTLHYKTDAPLNIRSIFYVPDMKPSMFDVSRELGSSVALYSRKVLIQTKATDILPKWLRFIRGVVDSEDIPLNLSRELLQESALIRKLRDVLQQRLIKFFIDQSKKDAEKYAKFFEDYGLFMREGIVTATEQEVKEDIAKLLRYESSALPSGQLTSLSEYASRMRAGTRNIYYLCAPNRHLAEHSPYYEAMKKKDTEVLFCFEQFDELTLLHLREFDKKKLISVETDIVVDHYKEEKFEDRSPAAECLSEKETEELMAWMRNVLGSRVTNVKVTLRLDTHPAMVTVLEMGAARHFLRMQQLAKTQEERAQLLQPTLEINPRHALIKKLNQLRASEPGLAQLLVDQIYENAMIAAGLVDDPRAMVGRLNELLVKALERH

target: T1, N-terminally 3xHA-tagged human RXFP3 (relaxin family peptide 3 receptor) (human); assay: affinity purification with mass spectrometry; SILAC; cells transfected with 3xHA-RXFP3 against empty vector; RIPA 0.1% SDS extracts; anti-HA beads overnight, eluted with 150 mM glycine-HCl pH 2.5; cells unstressed, or 100 nM H2O2 for 90 minutes, or 1 uM camptothecin for 3 hours (n=3 each)

| binding | Molecule |
| --- | --- |
| binds | EIF4A1 (from UniProt P60842 1-406) |
| binds | ELAVL1 (from UniProt Q15717 1-326) |
| binds | FAM98A (from UniProt Q8NCA5 1-518) |
| binds | FUS (from UniProt P35637 1-526) |
| binds | G3BP Stress Granule Assembly Factor 1 (from UniProt Q13283 1-466) |
| binds | IGFBP2 (from UniProt P18065 36-325) |
| binds | MAP4 (from UniProt P27816 1-1152) |
| binds | MAT2A (from UniProt P31153 1-395) |
| binds | PARP1 (from UniProt P09874 1-1014) |
| binds | RBMX (from UniProt P38159 1-391) |
| binds | SOD1 (from UniProt P00441 1-154) |
| binds | YBX1 (from UniProt P67809 1-324) |
| binds | cyclin-dependent kinase Inhibitor 2A (from UniProt P42771 1-156) |
| binds | proliferating cell nuclear antigen (from UniProt P12004 1-261) |
| binds | B1 |
| binds | B2 |
| binds | B3 |
| binds | B4 |
| binds | B5 |
